Assay results: PubChem BioAssay AID504444 (National Center for Advancing Translational Sciences (NCATS), 2011)
Several values for one entry are separate records, joined by “and”; a condition that tells them apart may be missing. Identical values can stand only once. About 7,500 (2.1%) of roughly 360,000 compounds were called active. Inconclusive results, whose numbers are uncertain, are shown with a selection of clear calls. Calls follow the shape of the dose curve; as a rule, active = well fitted inhibition curve with a large enough effect; inconclusive = small, poorly fitted or top-dose-only effect, or effect the other way; inactive = flat fitted curve, though single readings scatter. Potencies of inconclusive entries are doubtful fits and often do not repeat.

experiment: Nrf2 qHTS screen for inhibitors; details: A549 ARE-Fluc reporter, luciferase luminescence, 18-24 h; activity change, negative = inhibition: at 46 µM (top of the series); also: nearly all actives have a fitted effect of over 60% in size
In short: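 Two sequential reads on A549 ARE_Fluc cells exposed to compound for 18-24 h: a CellTiter-Fluor fluorescence read for viability, then a luciferase luminescence read for Nrf2/ARE activity.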
% is scaled to controls: 0 for no effect and ±100 for the full control effect; potency is read from the fitted curve at half-maximal effect.

Row | SMILES | Potency | activity change, negative = inhibition
1 | Cc1c(C(=O)N2CCC(C)CC2)oc2ccc(S(=O)(=O)N3CCC4(CC3)OCCO4)cc12 | active: 20.6 µM | 
2 | COc1ccc(N(Cc2cc(=O)[nH]c3ccccc23)C(=O)CCl)cc1 | inconclusive: 0.517 µM [activator, full curve] | 
3 | CCS(=O)(=O)c1ccc2oc(Nc3cc(C)cc(C)c3)nc2c1 | inconclusive: 23.1 µM [falling, single point] | 
4 | CCC(=O)N1c2ccc(S(=O)(=O)NC3CCCCC3)cc2CC1C (configuration not stated) | inconclusive: 16.4 µM [falling, partial curve] | 
5 | COc1cc(/C=C/C(=O)/C=C(O)/C=C/c2ccc(O)c(OC)c2)ccc1O |  | inactive: 29.2%
6 | COc1cccc(-c2nc3c(c(SCC(=O)Nc4cccc(C)c4C)n2)Cc2c(CO)cnc(C)c2O3)c1 | inconclusive: 29.1 µM [activator, single point] | 
7 | COc1ccc(S(=O)(=O)Nc2ccccc2C(=O)NCc2ccco2)cc1 |  | inactive: -5.04%
8 | COC(=O)c1cccc(NC(=O)CN(c2ccc3c(c2)OCO3)S(C)(=O)=O)c1C | inconclusive: 5.8 µM [activator, partial curve, poor fit] | 
9 | Oc1ccccc1CNc1cnc2ccccc2c1 | inconclusive: 23.1 µM [activator, single point] | 
10 | CCCCN(C)C(=O)C1CCCN(S(=O)(=O)c2ccc3c(c2)CC(C)N3C(=O)C2CC2)C1 (configuration not stated) | inconclusive: 32.6 µM [falling, partial curve, poor fit] | 
11 | CC12CCC(C(=O)Nc3ccc(Br)cn3)(OC1=O)C2(C)C (configuration not stated) |  | inactive: 4.12%
12 | O=C(NC(=S)Nc1ccc(Cc2ccncc2)cc1)c1ccccc1 |  | inactive: -13%
13 | COc1ccc2c(c1)c1c(c(=O)n(Cc3ccccc3)c(=O)n1CC(=O)Nc1ccccc1F)n2C | inconclusive: 10.3 µM [activator, partial curve, poor fit] | 
14 | COc1ccc2[nH]c(=O)c(CN(Cc3nnnn3Cc3ccc(F)cc3)CC3CCCO3)cc2c1 (configuration not stated) |  | inactive: -0.796%
15 | N=C1/C(=C/c2cccn2Cc2ccc(Cl)cc2)C(=O)N=C2SC=CN12 | inconclusive: 16.4 µM [falling, partial curve, poor fit] | 
16 | CC(=C/c1ccccc1)/C=N/NC(=O)c1ccccn1 | inconclusive: 6.51 µM [activator, single point] | 
17 | N/C(=N\OCc1ccc([N+](=O)[O-])cc1)c1ccccn1 | inconclusive: 29.1 µM [falling, single point] | 
18 | CCn1c(NCc2ccccc2NS(=O)(=O)c2ccc(C)cc2)nc2ccccc21 | inconclusive: 29.1 µM [falling, single point] | 
19 | COc1ccc(/C(=N/OC(C)=O)c2nccc3cc(OC)c(OC)cc23)cc1OC |  | inactive: 4.23%
20 | CC(C)(C)c1ccc(C(=O)NC2=NC(c3cccc(F)c3)CC(=O)N2)cc1 (configuration not stated) |  | inactive: -2.01%
21 | CCOc1ccc(NC(=O)/C(C#N)=C/c2cn(CC(=O)O)c3ccccc23)cc1 |  | inactive: 1.05%
22 | COc1ccc(C(=O)Nc2sc3c(c2C#N)CCN(C(C)=O)C3)cc1 | inconclusive: 20.6 µM [activator, partial curve] | 
23 | C=CCc1cc(F)c(S(=O)(=O)N2CCN(S(=O)(=O)c3ccc4c(c3)OCCO4)CC2)cc1F |  | inactive: 13.9%

Row | SMILES | Potency | activity change, negative = inhibition
24 | C[C@]12CCC(=O)C=C1CC[C@@H]1[C@@H]2CC[C@@]2(C)[C@H]1CC[C@]2(O)C(=O)CO | inconclusive: 1.64 µM [falling, full curve] | 
25 | O=C(Nc1cccc(-c2ccc(N3CCCCC3)nn2)c1)c1ccc(Br)o1 | inconclusive: 2.91 µM [activator, partial curve, poor fit] | 
26 | Cc1sc2ncnc(N/N=C/c3ccc(O)cc3)c2c1C | inconclusive: 25.9 µM [falling, single point] | 
27 | O=C(CNS(=O)(=O)c1ccc(Br)s1)N1CCN(c2ccc(F)cc2)CC1 | inconclusive: 29.1 µM [falling, single point] and inconclusive: 18.4 µM [falling, single point] | 
28 | O=C(CCSc1ccccc1)Nc1ccc(OCc2ccccc2)cc1 | inconclusive: 1.84 µM [activator, partial curve, poor fit] | 
29 | CCOC(=O)c1sc(N2C(=O)C(O)=C(C(=O)c3ccco3)C2c2ccc(C)o2)nc1C (configuration not stated) | inconclusive: 16.4 µM [activator, single point] | 
30 | COCCNS(=O)(=O)c1cc(-c2nn3c(C)nnc3c3ccccc23)ccc1C | inconclusive: 3.26 µM [falling, partial curve, poor fit] | 
31 | O=C1NC(=O)/C(=C\c2ccc(Br)o2)S1 | inconclusive: 6.51 µM [falling, partial curve, poor fit] | 
32 | CCC(C)/C(C)=N/Nc1ccc(S(N)(=O)=O)cc1[N+](=O)[O-] (configuration not stated) | inconclusive: 18.4 µM [falling, partial curve, poor fit] | 
33 | O=C(CCNC(=O)c1ccc(Br)cc1)NNC(=O)c1ccccc1 |  | inactive: -1.7%
34 | O=C(COC(=O)[C@H](Cc1ccccc1)NC(=O)c1ccco1)Nc1ccccc1 |  | inactive: 7.1%
35 | COc1cc(Cn2ncc3c4sc(C)cc4n(C)c3c2=O)cc(OC)c1 |  | inactive: 16.2%
36 | O=C(C[N+]1(CC#Cc2ccccc2)CCOCC1)c1ccccc1 | inconclusive: 5.17 µM [falling, full curve, poor fit] | 
37 | COc1ccc(/C(=N\O)c2ncc(C(F)(F)F)cc2Cl)cc1 | inconclusive: 4.61 µM [activator, single point] | 
38 | CCc1ccc(NC(=O)COc2ccc(F)cc2C(=O)c2cnn(-c3ccccc3)c2)cc1 | inconclusive: 9.2 µM [activator, partial curve] | 
39 | Cc1c(OCC(=O)NCC(O)c2ccccc2)ccc2c3c(c(=O)oc12)CCC3 (configuration not stated) | inconclusive: 0.82 µM [falling, partial curve] | 
40 | CC(C)Cc1nn2cc(-c3cccc(Br)c3)nc2s1 | inconclusive: 0.82 µM [activator, partial curve, poor fit] | 
41 | O=C(NCCc1c[nH]c2ccccc12)C(=O)NCC1OCCCN1S(=O)(=O)c1ccccc1 (configuration not stated) |  | inactive: -11.5%
42 | COc1ccccc1N(CC(=O)Nc1ccc2c(c1)OCCO2)S(=O)(=O)c1ccc(C)cc1 |  | inactive: 2.91%
43 | Cc1cccc(-c2ccc3c(c2)C2CC3CCN2)c1 (configuration not stated) | inconclusive: 29.1 µM [activator, single point] | 
44 | CCOc1ccc2nc(N3CCCC(C(=O)NCCc4ccc(OC)cc4OC)C3)sc2c1 (configuration not stated) | inconclusive: 5.17 µM [activator, single point] | 
45 | Cc1ccc(Cn2cc(-c3ccccc3)nn2)cc1 | inconclusive: 29.1 µM [activator, single point] | 
46 | CC(C)c1ccc(-c2nn(-c3ccccc3)cc2C(=O)NCC2CCCO2)cc1 (configuration not stated) | inconclusive: 32.6 µM [falling, single point] | 

Row | SMILES | Potency | activity change, negative = inhibition
47 | COc1ccccc1C(C)NCC(=O)Nc1ccccc1C(F)(F)F (configuration not stated) |  | inactive: -7.39%
48 | CC(=O)Nc1cc2oc3ccccc3c2cc1[N+](=O)[O-] | inconclusive: 9.2 µM [activator, partial curve] | 
49 | CCN(CC)CCCNC1=C(Cl)C(=O)c2ccccc2C1=O | inconclusive: 23.1 µM [falling, single point] | 
50 | Cc1ccc(NCC(=O)c2ccccc2)cc1Cl | inconclusive: 29.1 µM [activator, single point] | 
51 | CCCC(=O)NC(=S)Nc1ccc(C(C)=O)cc1 | inconclusive: 16.4 µM [activator, partial curve, poor fit] | 
52 | CC(Nc1ncnc2ccc(-c3ccc4c(c3)OCO4)cc12)c1ccco1 (configuration not stated) |  | inactive: -6.5%
53 | COc1ccccc1N1CCc2c(C)nc3c(OC)cccc3c21 | inconclusive: 32.6 µM [falling, single point] | 
54 | Cc1cccc2cc(CN(CCCO)C(=O)Nc3ccccc3Cl)c(=O)[nH]c12 |  | inactive: -3.47%
55 | COc1ccc(OC)c(NC(=O)CSc2nnc(Cc3cccn3C)n2CCc2ccccc2)c1 | inconclusive: 25.9 µM [falling, single point] | 
56 | CCOc1ccc(-c2nnc(SCC(=O)Nc3ccc4c(c3)c3ccccc3n4CC)n2N)cc1 | inconclusive: 25.9 µM [falling, single point] | 
57 | CCN(CC)S(=O)(=O)c1cccc(NC(=O)Nc2cccc(C(F)(F)F)c2)c1 | active: 2.59 µM | 
58 | Cc1sc2ncn(CC(=O)OCC(=O)NC(C)(C)C)c(=O)c2c1C | inconclusive: 5.8 µM [falling, partial curve, poor fit] | 
59 | Cc1nc(N2CCOCC2)nc(Oc2ccccc2F)c1[N+](=O)[O-] | inconclusive: 23.1 µM [activator, single point] | 
60 | CC(=O)NC(c1ccco1)c1cc(F)c2cccnc2c1O (configuration not stated) | inconclusive: 16.4 µM [falling, single point] | 
61 | Cc1cc(C)cc(NC(=S)NCc2ccc3[nH]c4c(c3c2)CCCC4)c1 | inconclusive: 23.1 µM [activator, single point] | 
62 | COc1ccc(CCN(C)C(=O)c2ccc(C)c(S(=O)(=O)N3CCCCC3)c2)cc1OC | inconclusive: 13 µM [falling, partial curve, poor fit] | 
63 | CC1=NN(c2ccc(S(=O)(=O)O)cc2C)C(=O)C1 |  | inactive: 1.23%
64 | CC(C)CN(c1ccccc1)S(=O)(=O)c1nnc(NC(=O)C2CCCCC2)s1 | inconclusive: 2.06 µM [activator, partial curve] | 
65 | O=C(NCc1cccnc1)C12CC3CC(CC(Cl)(C3)C1)C2 |  | inactive: 23.7%
66 | COc1ccc(/C=C/c2nc(C#N)c(N3CCC(C(N)=O)CC3)o2)cc1OC | inconclusive: 13 µM [activator, partial curve] | 
67 | Cc1c(NC(=O)Nc2cccc(C(F)(F)F)c2)sc2nc3n(c(=O)c12)CCC(C)CC3 (configuration not stated) |  | inactive: -13.4%
